Values of other authors, collected in patent US10980850B2, “Use of IAP inhibitor and oncolytic virus in preparation of anti-tumor drug” (Guangzhou Virotech Pharmaceutical Co., Ltd., priority 2016, dated 2021).
At least one structure is not confirmed: it was looked up by name or label, or the drawing left a doubt.

Test system: liver cancer cell strain Hep3B
Settings: 50 μM chrysophanol in combination with M1 virus (MOI=0.001); cited from earlier work

Question: With Cc1cc(O)c2c(c1)C(=O)c1cccc(O)c1C2=O [chrysophanol] as the compound, how does the “survival rate of tumor cells” value read?
Answer: 39.6%
